PubChem BioAssay AID322 (DTP/NCI, 2004)
The list does not hold the whole screen: it gathers tests that were run many times, whatever their T/C, doses with no T/C, and many T/C values between a quarter and a half above the control. Further doses and runs are listed elsewhere. T/C is the treated group as % of the vehicle group. Some entries give survivors of the animals treated and no T/C: the source holds a T/C of zero for them, seemingly a mark for toxic or unscored doses. Some survivor counts are full or nearly so, which does not show that the dose was tolerated: survival well below the control is almost never listed, so the zero probably covers shortened survival too. Counts of survivors are from the toxicity check (mostly the fifth day) where no day follows; animals may have died later. Schedules are NCI's codes, read here as Q, the interval in days (D) or hours (H), X, the number of doses. Some doses were run more than once; their values stand side by side, smallest first. Where survival is the endpoint, the PubChem record calls one and a half times the control and up active, and a quarter to a half above the control has no call in these data; cut-offs in other NCI protocols can differ. Some T/C values are followed by the survivors on the day toxicity was checked, most often the fifth; without a count, all were alive then. Signs of the kind (2×) say how often a value occurs here.

System: CD2F1 mice, P388/ADR leukemia ip, median survival T/C
Assay: NCI In Vivo Anticancer Drug Screen. Data for tumor model P388 Leukemia resistant to Adriamycin; NSC 123127, Developed at Scr 08 (intraperitoneal) in CD2F1 (CDF1) mice
Conditions: T/C endpoint: median survival time, higher T/C = longer survival
Method: The antitumor activity of compounds was measured in mice bearing transplantable tumors. Survival or tumor size were measured and the results are expressed as the measurement made in the treated group (T) divided by the measurement made in the vehicle treated control group (C). The tumor model used in this assay is P388 Leukemia resistant to Adriamycin; NSC 123127, Developed at Scr 08 (intraperitoneal) in CD2F1 (CDF1) mice

Question: What does the source list for `COc1cccc2c1C(=O)c1c(O)c3c(c(O)c1C2=O)C[C@@](O)(C(=O)CO)C[C@@H]3OC1CC(N)C(O)C(C)O1` (some centres not stated)?
Answer: survivor count (dose: 0.51 mg/kg/injection, schedule: Q01DX009 (ip), vehicle: saline): 8 of 8; survivor count (dose: 0.72 mg/kg/injection, schedule: Q01DX009 (ip), vehicle: saline): 8 of 8; survivor count (dose: 0.86 mg/kg/injection, schedule: Q01DX009 (ip), vehicle: saline): 8 of 8; T/C (dose: 1.0 mg/kg/injection, schedule: Q04DX003 (ip), vehicle: saline): 139 % of control; T/C (dose: 1.25 mg/kg/injection, schedule: Q01DX001 (ip), vehicle: water): 125 % of control; survivor count (dose: 1.44 mg/kg/injection, schedule: Q01DX009 (ip), vehicle: saline): 8 of 8; T/C (dose: 2.0 mg/kg/injection, schedule: Q04DX003 (ip), vehicle: saline): 142 % of control; survivor count (dose: 2.4 mg/kg/injection, schedule: Q01DX009 (ip), vehicle: saline): 8 of 8; T/C (dose: 2.5 mg/kg/injection, schedule: Q01DX001 (ip), vehicle: saline): 131 % of control; survivor count (dose: 3.0 mg/kg/injection, schedule: Q01DX009 (ip), vehicle: saline): 8 of 8; survivor count (dose: 4.0 mg/kg/injection, schedule: Q01DX009 (ip), vehicle: saline): 8 of 8; T/C (dose: 4.0 mg/kg/injection, schedule: Q04DX002 (ip), vehicle: saline): 133 % of control; T/C (dose: 4.0 mg/kg/injection, schedule: Q04DX003 (ip), vehicle: saline): 136 % of control; T/C (dose: 4.4 mg/kg/injection, schedule: Q01DX001 (ip), vehicle: saline): 132 % of control; T/C (dose: 4.4 mg/kg/injection, schedule: Q04DX003 (ip), vehicle: saline): 144 % of control; T/C (dose: 4.5 mg/kg/injection, schedule: Q01DX001 (ip), vehicle: saline, evaluated on day 20): 111 and 139 % of control; T/C (dose: 4.5 mg/kg/injection, schedule: Q01DX001 (ip), vehicle: saline, evaluated on day 23): 110 % of control; T/C (dose: 4.5 mg/kg/injection, schedule: Q01DX001 (ip), vehicle: saline, evaluated on day 30): 90, 93, 96, 99, 100, 101 [9 of 10 alive], 102, 103, 109 (3×), 110 (2×), 111, 112, 115, 116, 117, 118 (2×), 119 (3×), 120 (2×), 121 (2×), 123 (2×), 126 (3×), 128, 129 (3×), 130 (3×), 131, 132, 134 (2×), 135 (4×), 136 (2×), 137, 138, 140 (2×), 142, 143, 144 (2×), 146, 147, 148 % of control; T/C (dose: 4.5 mg/kg/injection, schedule: Q01DX001 (ip), vehicle: saline, evaluated on day 45): 130, 133, 134, 140 (2×), 141, 145 % of control; T/C (dose: 4.5 mg/kg/injection, schedule: Q01DX001 (ip), vehicle: saline, evaluated on day 46): 134 % of control; T/C (dose: 4.5 mg/kg/injection, schedule: Q01DX001 (ip), vehicle: saline, evaluated on day 56): 126 % of control; T/C (dose: 4.5 mg/kg/injection, schedule: Q01DX001 (ip), vehicle: saline, evaluated on day 60): 131, 134, 135, 140, 148 % of control; survivor count (dose: 4.5 mg/kg/injection, schedule: Q01DX001 (ip), vehicle: saline): 1 of 10 and 6 of 10; T/C (dose: 4.5 mg/kg/injection, schedule: Q01DX005 (ip), vehicle: saline): 148 % of control; T/C (dose: 5.0 mg/kg/injection, schedule: Q01DX001 (ip), vehicle: saline): 125 % of control; T/C (dose: 6.0 mg/kg/injection, schedule: Q04DX002 (ip), vehicle: saline): 140 % of control; T/C (dose: 6.7 mg/kg/injection, schedule: Q01DX001 (ip), vehicle: saline, evaluated on day 20): 110 and 141 % of control; T/C (dose: 6.7 mg/kg/injection, schedule: Q01DX001 (ip), vehicle: saline, evaluated on day 23): 116 % of control; T/C (dose: 6.7 mg/kg/injection, schedule: Q01DX001 (ip), vehicle: saline, evaluated on day 27): 132 % of control; T/C (dose: 6.7 mg/kg/injection, schedule: Q01DX001 (ip), vehicle: saline, evaluated on day 30): 89, 91, 97 (2×), 105, 107, 108, 109 (2×), 110 (2×), 114 (3×), 115 (2×), 117 (2×), 118 (2×), 119 (2×), 120 (4×), 121 (3×), 123, 124, 124 [9 of 10 alive], 125 (2×), 126, 128, 129, 130 (2×), 132 (4×), 135 (2×), 136, 137, 138 (3×), 139, 140, 141, 142, 143, 144 (2×), 145, 150, 154 % of control; T/C (dose: 6.7 mg/kg/injection, schedule: Q01DX001 (ip), vehicle: saline, evaluated on day 45): 115, 117, 122, 132 (2×), 133, 136, 145 (2×), 148, 149 % of control; T/C (dose: 6.7 mg/kg/injection, schedule: Q01DX001 (ip), vehicle: saline, evaluated on day 46): 125 % of control
